Laboratory results as given in PubChem BioAssay AID540276 (National Center for Advancing Translational Sciences (NCATS), 2011).
About 5,400 (1.8%) of roughly 300,000 compounds were called active. Inconclusive means that the source gave no clear call. Such entries were picked first, then a sample of the others. Calls follow the shape of the full dose curve; tested in HEK293 cells. Potencies beside an inconclusive call are fits to weak or partial responses and may not hold up.

Experiment: qHTS for inhibitors of binding or entry into cells for Marburg Virus
Settings: Marburg virus pseudotyped entry inhibition, cell reporter; activity change, negative = inhibition: at 37.8 µM (top of the series) unless noted
% is scaled to controls: 0 for no effect and ±100 for the full control effect; potency is read from the fitted curve at half-maximal effect.

| Structure (SMILES) | Potency | activity change, negative = inhibition |
| --- | --- | --- |
| Cc1cccc(C)c1NC(=O)C1(NC(=O)Cn2cccc([N+](=O)[O-])c2=O)CCCCC1 | inconclusive: 7.08 µM [inhibitor, partial curve] | – |
| Cc1onc(-c2ccccc2Cl)c1C(=O)NCc1ccccn1 | – | inactive: -7.62% |
| N#Cc1cccc(NC(=O)CNc2cccc(S(=O)(=O)N3CCCC3)c2)c1 | inconclusive: 17.8 µM [inhibitor, single point] | – |
| Cc1cc(NCCCN2CCOCC2)n2c(nc3ccccc32)c1C#N | inconclusive: 6.51 µM [inhibitor, partial curve, poor fit] | – |
| O=C(Nc1ccccc1N1CCCC1)C1CCN(S(=O)(=O)c2ccc(F)cc2)CC1 | inconclusive: 35.5 µM [inhibitor, single point] | – |
| COc1ccc(NC(=O)/C(=C/c2cccnc2)NC(=O)c2cccs2)cc1 | – | inactive: 3.55% |
| CC1=CCC2C(=O)N(c3cccc(C(=O)Nc4ccccc4Cl)c3)C(=O)C2C1 (stereo unspecified) | – | inactive: 3.84% |
| Nc1nc(Nc2ccccc2)nc(NCc2ccccc2)c1[N+](=O)[O-] | inconclusive: 17.8 µM [inhibitor, partial curve, poor fit] | – |
| CCN1CCN(C(=O)c2ccc3c(=O)n(CCc4ccccc4)c(=O)[nH]c3c2)CC1 | – | inactive: 3.53% |
| CCOC(=O)N1CCN(C(=O)COC(=O)c2cc(Cl)c(O)c(Cl)c2)CC1 | – | inactive: 6.02% [at 46.1 µM] |
| CC(=O)c1ccc(-n2cc(-c3ccc(C(C)(C)C)cc3)[n+]3c2SCCC3)cc1 | inconclusive: 7.08 µM [inhibitor, partial curve, poor fit] | – |
| CS(=O)(=O)N(CC(=O)N/N=C/c1cc([N+](=O)[O-])ccc1Cl)c1ccccc1 | inconclusive: 11.2 µM [inhibitor, partial curve, poor fit] | – |
| CCOc1ccccc1C(=O)N1CCN(c2ccc(C(F)(F)F)cn2)CC1 | inconclusive: 10 µM [inhibitor, partial curve] | – |
| CCc1ccc2c(c1)[C@H]1OCC[C@H]1[C@@H](c1cccs1)N2 | inconclusive: 2.31 µM [inhibitor, full curve] | – |
| O=C1OCCN1CC(=O)N1CCc2c([nH]c3ccccc23)C1c1ccccn1 (stereo unspecified) | – | inactive: 3.59% [at 46.1 µM] |
| COc1ccc(N(CC(=O)Nc2ccc(F)c(Cl)c2)S(=O)(=O)c2c(C)noc2C)cc1 | inconclusive: 20.6 µM [inhibitor, single point] | – |
| C=CCOc1ccccc1CN(C(=O)CCl)c1ccc2c(c1)OCO2 | inconclusive: 35.5 µM [inhibitor, single point] | – |
| CN1CCN(NC(=S)NC(C)(C)CC(C)(C)C)CC1 | inconclusive: 35.5 µM [inhibitor, single point] | – |
| O=[N+]([O-])c1ccc(O)c(/C=N/Nc2ccccn2)c1 | inconclusive: 3.16 µM [inhibitor, full curve, poor fit] | – |
| Cc1ccc([C@H]2C[C@H](O)[C@@H](n3cc(-c4ccc(F)cc4)nn3)CN2C(=O)C2CCCCC2)cc1 | inconclusive: 8.87 µM [inhibitor, partial curve, poor fit] | – |
| O=C(CSc1nc(=O)n2cc(Cl)ccc2n1)Nc1cccc2ccccc12 | inconclusive: 35.5 µM [inhibitor, single point] | – |

2 entries from above, with tabs.
Structure (SMILES)	Potency	activity change, negative = inhibition
C=CCOc1ccccc1CN(C(=O)CCl)c1ccc2c(c1)OCO2	inconclusive: 35.5 µM [inhibitor, single point]	–
CN1CCN(NC(=S)NC(C)(C)CC(C)(C)C)CC1	inconclusive: 35.5 µM [inhibitor, single point]	–

Continued.

| Structure (SMILES) | Potency | activity change, negative = inhibition |
| --- | --- | --- |
| COC(=O)CC=C[C@@H](C)[C@H](OC)c1c(Br)ccc2c1OCO2 | inconclusive: 0.531 µM [inhibitor, partial curve, poor fit] | – |
| CC(C)(C)OC(=O)COc1cc(OCC(=O)OC(C)(C)C)c2c(=O)cc(-c3ccccc3)oc2c1 | inconclusive: 29.1 µM [inhibitor, partial curve, poor fit] | – |
| CC(C)N1CCN(Cc2nc3c(s2)CCCC3)CC1CCO (stereo unspecified) | inconclusive: 17.8 µM [inhibitor, partial curve, poor fit] | – |
| Cc1ccccc1-n1cnc2cc(NCc3cccs3)ccc21 | inconclusive: 5.17 µM [inhibitor, full curve] | – |
| CCOC(=O)C(/C(N)=N/C(=O)Nc1ccccc1)=C(\C)O | inconclusive: 0.58 µM [inhibitor, single point] | – |
| COc1cccc(C(=O)Cn2c(=N)n(C)c3ccccc32)c1 | inconclusive: 10 µM [inhibitor, partial curve, poor fit] | – |
| O=C(O)c1csc(Cc2ccccc2)n1 | – | inactive: 13.2% [at 46.1 µM] |
| Cc1[nH]c2ccc(F)cc2c1CCN(Cc1ccncc1)C(=S)Nc1ccccc1 | inconclusive: 5.62 µM [inhibitor, full curve, poor fit] | – |
| Cc1ccccc1-n1c(SCC(=O)c2cc(C)n(C)c2C)nnc1-c1ccncc1 | inconclusive: 10.3 µM [inhibitor, partial curve, poor fit] | – |
| O=C(NCc1ccc(Cl)cc1)C(=O)NCC(c1cccnc1)N1CCN(c2ccc(F)cc2)CC1 (stereo unspecified) | inconclusive: 12.6 µM [inhibitor, single point] | – |
| COc1ccc(/C=C/C(=O)Nc2ccccc2C(=O)NCC(c2ccc(OC)cc2)N(C)C)cc1 (stereo unspecified) | inconclusive: 20 µM [inhibitor, partial curve, poor fit] | – |
| O=C(O)CCn1c(-c2ccccn2)nc2ccccc21 | – | inactive: 21.2% [at 46.1 µM] |
| CC(=O)c1c(C)nc(Nc2nc(C)c3cc(C)ccc3n2)nc1C | inconclusive: 28.2 µM [activator, single point] | – |
| COc1ccc(C2/C(=C(/O)c3ccc4c(c3)CC(C)O4)C(=O)C(=O)N2CCCN2CCOCC2)cc1OC (stereo unspecified) | – | inactive: 1.96% |
| COc1ccc(C(=O)N2CC(=O)Nc3ccc(C)cc3C2c2ccc(F)cc2)c(OC)c1 (stereo unspecified) | – | inactive: -3.31% [at 46.1 µM] |
| Cc1cc(C)c(NC(=O)CNC(=O)COC(=O)C2CCN(c3ccc(C(F)(F)F)cn3)CC2)c(C)c1 | inconclusive: 15.8 µM [activator, single point] | – |
| CC(=O)Nc1ccc(S(=O)(=O)NC2=NCN(C(C)C)CN2)cc1 | – | inactive: -24.4% [at 46.1 µM] |
| CS(=O)(=O)N1CCN(c2ccc(NC(=O)c3ccc(Br)o3)cc2)CC1 | – | inactive: 4.38% |
| COc1ccc(CCNCc2c(-c3ccccc3)n(C)c3ccccc23)cc1 | inconclusive: 4.47 µM [inhibitor, full curve, poor fit] | – |
| COc1ccccc1NC(=O)c1nnn(-c2ccc(F)cc2)c1C | inconclusive: 3.55 µM [activator, single point] | – |
